Measurements reported in PubChem BioAssay AID652243 (Drosophila RNAi Screening Center, 2013)
Purpose: 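Fly regulators of androgen-dependent reporter output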 (primary screen). System: Drosophila S2R+ cells. Reagent: long dsRNA against Drosophila genes. Timing: 72 h (48 h, then 24 h hormone). Conditions: synthetic androgen R1881 at 10 nM for 24 h. Measured: 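Firefly light from an androgen-responsive reporter and Renilla control light per well, raw and unnormalised, for each of two replicates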. Scale: firefly reporter light: higher = more light from androgen-responsive reporter; Renilla control light: higher = more constitutive control signal (cell number, transfection). Hit rule: 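Across duplicate plates, a knock-down whose log firefly/Renilla ratio shifted a set fold down or up from the GFP/LacZ control mean was a hit; the downward cut appears as both 1.5 and 3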. Meaning of the calls: active = hit: reporter lowered or raised; inactive = no hit.
The screen tested about 24,000 reagents; shown is a random part of those with a known target gene and a result. In the full data, 246 (1%) were called active. 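Plates not normalised; calls are printed but the firefly/Renilla ratio behind them is not deposited; fold cut for lowering reported inconsistently.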 The raw values are shown without normalisation. Names joined by + are all predicted targets of the reagent. Reagent sequences are not shown. Not given: the amount of reagent.

target gene,amplicon,"firefly reporter light, replicate 1","firefly reporter light, replicate 2","Renilla control light, replicate 1","Renilla control light, replicate 2",call
LManIII,DRSC03221,1.36e5,2.14e5,9.66e5,1.04e6,inactive
LManIII,DRSC29001,4.28e5,3.35e5,1.49e6,1.27e6,inactive
CG2291,DRSC06836,4.28e5,3.53e5,1.82e6,1.45e6,inactive
CG5290,DRSC10501,81386,22359,4.93e5,2.79e5,inactive
CG5290,DRSC30041,4.18e5,4.18e5,1.12e6,1.19e6,inactive
FoxL1,DRSC08717,82839,1.32e5,1.24e6,1.70e6,inactive
FoxL1,DRSC25265,5.83e5,2.95e5,6.36e5,5.51e5,inactive
Cyp6d5,DRSC16634,1.16e5,79074,4.02e5,4.05e5,inactive
Cyp6d5,DRSC29717,4.55e5,3.50e5,1.13e6,1.36e6,inactive
Zip88E,DRSC15562,1.44e5,1.48e5,2.42e6,2.69e6,inactive
Zip88E,DRSC25826,6.35e5,6.92e5,6.85e5,4.84e5,inactive
zld,DRSC23098,6.03e5,6.96e5,9.56e5,1.27e6,inactive
zld,DRSC25802,4.31e5,3.58e5,1.08e6,5.48e5,inactive

Continued, starting with the last 3 of the part before.
target gene,amplicon,"firefly reporter light, replicate 1","firefly reporter light, replicate 2","Renilla control light, replicate 1","Renilla control light, replicate 2",call
Zip88E,DRSC25826,6.35e5,6.92e5,6.85e5,4.84e5,inactive
zld,DRSC23098,6.03e5,6.96e5,9.56e5,1.27e6,inactive
zld,DRSC25802,4.31e5,3.58e5,1.08e6,5.48e5,inactive
Ogdh,DRSC09854,93551,1.01e5,5.83e5,6.20e5,inactive
Ogdh,DRSC09855,2.14e5,1.39e5,1.97e6,1.66e6,inactive
Ccn,DRSC09504,2.69e5,1.86e5,8.84e5,7.35e5,inactive
Ccn,DRSC09506,1.87e5,2.43e5,7.21e5,5.54e5,inactive
Ccn,DRSC10062,70874,1.17e5,7.94e5,8.63e5,inactive
Ccn,DRSC10063,75423,78775,2.36e6,1.50e6,inactive
Ir67c,DRSC22097,7.21e5,6.64e5,2.21e6,1.89e6,inactive
Sox14,DRSC04656,2.91e5,2.85e5,2.21e6,1.87e6,inactive
Sox14,DRSC27025,3.40e5,2.49e5,5.17e5,4.48e5,inactive
Obp56f,DRSC22270,9.49e5,1.07e6,1.98e6,2.07e6,inactive
CG14000 + bchs,DRSC02333,56580,1.88e5,7.95e5,1.41e6,inactive
Ctu2,DRSC02024,6.29e5,6.25e5,1.68e6,2.06e6,inactive
Ctu2,DRSC29317,6.23e5,7.63e5,1.16e6,1.16e6,inactive
CG34041,DRSC22276,9.11e5,7.67e5,2.79e6,2.69e6,inactive
CG34041,DRSC30023,5.44e5,6.36e5,1.50e6,1.70e6,inactive
tay,DRSC20142,1.60e5,1.02e5,7.92e5,6.10e5,inactive
Kif19A,DRSC16576,2.36e5,2.24e5,2.07e6,2.79e6,inactive
Kif19A,DRSC23867,4.30e5,3.37e5,4.50e5,4.94e5,inactive
CG16820,DRSC02522,1.04e6,1.37e6,2.76e6,2.47e6,inactive
Tpt,DRSC27217,2.60e5,2.78e5,5.48e5,6.11e5,inactive
inv,DRSC07633,2.40e5,2.26e5,9.35e5,1.46e6,inactive
inv,DRSC29580,3.90e5,6.92e5,6.25e5,6.25e5,inactive
Pop2,DRSC10537,8.67e5,6.19e5,1.92e6,1.39e6,inactive
Pop2,DRSC27971,6.70e5,4.64e5,2.11e6,1.27e6,inactive
Ir84a,DRSC12510,33785,48494,1.17e6,9.86e5,inactive
Ir84a,DRSC27487,2.13e5,2.25e5,6.37e5,7.73e5,inactive
CG11164,DRSC19392,5.84e5,6.12e5,3.28e6,3.26e6,inactive
